Test results from publication PMC10275998.
These are yes or no findings as the source states them, for the method shown. For part of these data: Binding seen in cells or lysates may run through a third protein. Some binding calls cover weakened binding; strength is not graded here. For part of these data: Where a sequence is shown, tags or fusion partners need not be part of it.

Chains of the proteins cited; added tags and fusions are not shown.
UniProt P55852: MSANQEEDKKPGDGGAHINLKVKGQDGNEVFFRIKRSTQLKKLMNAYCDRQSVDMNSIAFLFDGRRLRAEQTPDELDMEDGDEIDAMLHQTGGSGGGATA
UniProt P93002: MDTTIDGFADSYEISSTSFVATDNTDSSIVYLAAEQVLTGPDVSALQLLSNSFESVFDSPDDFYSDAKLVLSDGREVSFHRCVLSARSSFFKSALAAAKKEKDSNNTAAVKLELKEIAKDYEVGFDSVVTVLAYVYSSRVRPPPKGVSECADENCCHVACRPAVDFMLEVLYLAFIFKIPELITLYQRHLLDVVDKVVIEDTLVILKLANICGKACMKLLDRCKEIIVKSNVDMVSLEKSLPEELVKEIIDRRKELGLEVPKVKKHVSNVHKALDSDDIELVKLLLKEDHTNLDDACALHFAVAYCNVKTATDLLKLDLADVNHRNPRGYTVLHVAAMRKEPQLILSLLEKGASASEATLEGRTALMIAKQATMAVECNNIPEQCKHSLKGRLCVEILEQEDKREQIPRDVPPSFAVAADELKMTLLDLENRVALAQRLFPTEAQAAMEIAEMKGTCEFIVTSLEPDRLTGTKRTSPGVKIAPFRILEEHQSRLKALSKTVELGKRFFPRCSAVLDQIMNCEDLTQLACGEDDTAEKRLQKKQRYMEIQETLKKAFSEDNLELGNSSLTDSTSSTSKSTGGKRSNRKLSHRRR

How the values were obtained:
[1] = biological target: T1, BD-fused TGACG-BINDING FACTOR 3 (Arabidopsis) (UniProt Q39234); assay: two-hybrid; yeast strain Golden, GAL4 AD and BD fusions, growth of serially diluted cells on selective medium lacking tryptophan, leucine, histidine and adenine (-AHLW); SA had no obvious influence on NIb-NPR1
T1 sequence: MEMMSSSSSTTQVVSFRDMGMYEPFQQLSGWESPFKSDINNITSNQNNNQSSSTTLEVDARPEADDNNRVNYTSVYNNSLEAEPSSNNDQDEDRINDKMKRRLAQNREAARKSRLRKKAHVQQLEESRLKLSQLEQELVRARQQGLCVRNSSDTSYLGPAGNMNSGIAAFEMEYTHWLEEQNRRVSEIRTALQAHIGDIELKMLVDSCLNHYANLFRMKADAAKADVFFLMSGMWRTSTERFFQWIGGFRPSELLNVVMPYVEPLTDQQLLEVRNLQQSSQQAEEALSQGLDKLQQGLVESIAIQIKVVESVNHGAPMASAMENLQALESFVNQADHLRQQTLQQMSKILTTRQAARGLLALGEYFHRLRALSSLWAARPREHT

[2] = biological target: BD-SUMO1 (UniProt P55852); assay: as above
[3] = biological target: T2, TGA3, split-luciferase fusion (Arabidopsis) (UniProt Q39234); assay: split reporter; competitive split-luciferase in N. benthamiana leaves with a co-expressed competitor (NIb, NIb_(sim2), other potyviral NIbs, SUMO1 or GUS); 60 hpi, 10 μM D-luciferin
T2 sequence: T1 sequence

Row | Substance | binding [1] | binding [2] | binding [3]
1 | GAL4 activation domain-fused Arabidopsis NPR1 (from UniProt P93002 1-593) | binds | no binding | 
2 | NPR1-nLUC (Arabidopsis) (from UniProt P93002 1-593) |  |  | binds
